Reference: the supplement of paper PMC8728848
The other results are listed elsewhere or left out.

Columns and labels:
Assay in all cases: glycan array binding signal (z-score within array); higher = stronger binding
Settings in all cases: glycan notation: IUPAC condensed, linker removed
Fuc(a1-3)GlcNAc = biological target: Fuc(a1-3)GlcNAc
Procedure, shortened: (§1)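 The binding signal is a Z-score computed within each array. Data were drawn from 3228 arrays in the Consortium for Functional Glycomics database, restricted to those with a known protein sequence. Scores were averaged over arrays of the same protein sequence at different concentrations or buffers, and over linkers, and negative values can be taken as non-binding.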

[1] = biological target: Fuc(a1-3)[Gal(b1-4)]Glc6S
Procedure, shortened: as §1

[2] = biological target: Fuc(a1-3)[Gal(b1-4)]GlcNAc
Procedure, shortened: as §1

[3] = biological target: Fuc(a1-3)[Gal(b1-4)]GlcNAc(b1-2)Man
Procedure, shortened: as §1

[4] = biological target: Fuc(a1-3)[Gal(b1-4)]GlcNAc(b1-2)Man(a1-3)[Fuc(a1-3)[Gal(b1-4)]GlcNAc(b1-2)Man(a1-6)]Man(b1-4)GlcNAc(b1-4)GlcNAc
Procedure, shortened: as §1

[5] = biological target: Fuc(a1-3)[Gal(b1-4)]GlcNAc(b1-2)Man(a1-3)[Fuc(a1-3)[Gal(b1-4)]GlcNAc(b1-2)Man(a1-6)]Man(b1-4)GlcNAc(b1-4)[Fuc(a1-6)]GlcNAc
Procedure, shortened: as §1

[6] = biological target: Fuc(a1-3)[Gal(b1-4)]GlcNAc(b1-3)Gal(b1-3)[Fuc(a1-4)]GlcNAc
Procedure, shortened: as §1

[7] = biological target: Fuc(a1-3)[Gal(b1-4)]GlcNAc(b1-3)Gal(b1-4)[Fuc(a1-3)]GlcNAc
Procedure, shortened: as §1

[8] = biological target: Fuc(a1-3)[Gal(b1-4)]GlcNAc(b1-3)Gal(b1-4)[Fuc(a1-3)]GlcNAc(b1-3)Gal(b1-4)[Fuc(a1-3)]GlcNAc
Procedure, shortened: as §1

[9] = biological target: Fuc(a1-3)[Gal(b1-4)]GlcNAc(b1-3)GalNAc
Procedure, shortened: as §1

[10] = biological target: Fuc(a1-3)[Gal(b1-4)]GlcNAc(b1-6)GalNAc
Procedure, shortened: as §1

[11] = biological target: Fuc(a1-3)[Gal(b1-4)]GlcNAc(b1-6)[Gal(b1-3)GlcNAc(b1-3)]Gal(b1-4)Glc
Procedure, shortened: as §1

[12] = biological target: Fuc(a1-3)[Gal(b1-4)]GlcNAc6S
Procedure, shortened: as §1

[13] = biological target: Fuc(a1-3)[Gal3S(b1-4)]Glc
Procedure, shortened: as §1

[14] = biological target: Fuc(a1-3)[Gal3S(b1-4)]GlcNAc
Procedure, shortened: as §1

[15] = biological target: Fuc(a1-3)[Gal3S(b1-4)]GlcNAc6S
Procedure, shortened: as §1

[16] = biological target: Fuc(a1-3)[GalNAc(b1-4)]GlcNAc
Procedure, shortened: as §1

[17] = biological target: Fuc(a1-3)[GalNAc(b1-4)]GlcNAc6S
Procedure, shortened: as §1

Fuc(a1-4)GlcNAc = biological target: Fuc(a1-4)GlcNAc
Procedure, shortened: as §1

Fuc(b1-3)GlcNAc = biological target: Fuc(b1-3)GlcNAc
Procedure, shortened: as §1

Gal(a1-2)Gal = biological target: Gal(a1-2)Gal
Procedure, shortened: as §1

Gal(a1-3)Gal = biological target: Gal(a1-3)Gal
Procedure, shortened: as §1

Gal(a1-3)Gal(b1-3)GlcNAc = biological target: Gal(a1-3)Gal(b1-3)GlcNAc
Procedure, shortened: as §1

[18] = biological target: Gal(a1-3)Gal(b1-3)GlcNAc(b1-2)Man
Procedure, shortened: as §1

[19] = biological target: Gal(a1-3)Gal(b1-3)GlcNAc(b1-2)Man(a1-3)[Gal(a1-3)Gal(b1-3)GlcNAc(b1-2)Man(a1-6)]Man(b1-4)GlcNAc(b1-4)GlcNAc
Procedure, shortened: as §1

[20] = biological target: Gal(a1-3)Gal(b1-3)GlcNAc(b1-3)GalNAc
Procedure, shortened: as §1

[21] = biological target: Gal(a1-3)Gal(b1-3)GlcNAc(b1-6)GalNAc
Procedure, shortened: as §1

[22] = biological target: Gal(a1-3)Gal(b1-3)[Fuc(a1-4)]GlcNAc(b1-2)Man(a1-3)[Gal(a1-3)Gal(b1-3)[Fuc(a1-4)]GlcNAc(b1-2)Man(a1-6)]Man(b1-4)GlcNAc(b1-4)GlcNAc
Procedure, shortened: as §1

Gal(a1-3)Gal(b1-4)Glc = biological target: Gal(a1-3)Gal(b1-4)Glc
Procedure, shortened: as §1

Gal(a1-3)Gal(b1-4)GlcNAc = biological target: Gal(a1-3)Gal(b1-4)GlcNAc
Procedure, shortened: as §1

B1: Awp1 (Candida glabrata) (protein)
chain: MSLITIFAFLIKATLVLSLDILTPTTLTGDQTFNEDVSVVSSLTLNDGSQYLFNNLLQIAPSSASVTANALAAVSVFTFSLPPSSSLSNSGTLIISNSNTGPSTEQHIVITPNVMANTGTITLSLAHTNTDSSSTLIIDPVTFYNTGTINYESIGSETNDPSLTGNILSIGSSGRTLQNLGTINLNAANSYYLLGTITENSGSINVQKGFLYVNALDFIGNTINLSTTTALAFISPVSQVVRVRGVFFGNIIASVGSSGTFSYNTQTGILTVTTNGVYSYDIGCGYNPALMSGQQETLSFQGNPYDTFLVLVNQPIPSDLTCAAVSSSITPSSSVEPSSSVVPSSSVEPSSSVEPSSSVEPSSSVEPSSSVEPSSSVEPSSSVEPSSSVEPSSSVEPSSSVEPSSSVEPSSSVEPSSSVEPSSSVEPSSSVEPSSSVEPSSSVEPSSSVEPSSSVEPSSLIVPSSSVEPSSSVLPSSSVVPSSSVEPSTPPIPSSSVEPSSSVVPSSPAVPSSSVEPSTPPIPSSSVVSASVFDTSSTLPSSPSVPPSSVSPSTISTPSSSAAPSSFCPTCVSSGTPPAPSSSAIVPTSSAGGGNGGDNREPGAAGQPGAAGQPGAAGQPGAAGQPGAAGQPGAAGQPGAAGQPGAAGQPGAAGQPGAAGQPGAGFGVGSEQPTPGAGAGSGSADGNQSGTGSGTGNGQQGSGQAGSGQAGSGQEGSGQAGSGQAGSGQAGSGQAGSGQAGLDNTASGQSEGGQASAMDGDQSGRDGQSNSGSLLQPNAQQGTGSGTGSDIGADQASGESPGQIGDAQPGSGTDQSSGRHSLAAEARTSQSHSLAADARTRSTTRQTSVIAPDTAPGTASGTAPGTAPGTAVVTTFHGCGTVNHKGMINILLALALLVLL
Fuc(a1-3)GlcNAc
  glycan array binding signal (z-score): -1.65
[1]
  glycan array binding signal (z-score): 0.558
[2]
  glycan array binding signal (z-score): -1.05
[3]
  glycan array binding signal (z-score): -1.84
[4]
  glycan array binding signal (z-score): 0.304
[5]
  glycan array binding signal (z-score): 2.28
[6]
  glycan array binding signal (z-score): -0.386
[7]
  glycan array binding signal (z-score): -1.82
[8]
  glycan array binding signal (z-score): -1.77
[9]
  glycan array binding signal (z-score): -0.439
[10]
  glycan array binding signal (z-score): -0.218
[11]
  glycan array binding signal (z-score): -0.237
[12]
  glycan array binding signal (z-score): -0.066
[13]
  glycan array binding signal (z-score): 2.03
[14]
  glycan array binding signal (z-score): 0.794
[15]
  glycan array binding signal (z-score): 1.54
[16]
  glycan array binding signal (z-score): 1.36
[17]
  glycan array binding signal (z-score): 0.022
Fuc(a1-4)GlcNAc
  glycan array binding signal (z-score): -0.995
Fuc(b1-3)GlcNAc
  glycan array binding signal (z-score): -0.685
Gal(a1-2)Gal
  glycan array binding signal (z-score): -0.059
Gal(a1-3)Gal
  glycan array binding signal (z-score): 1.31
Gal(a1-3)Gal(b1-3)GlcNAc
  glycan array binding signal (z-score): 0.139
[18]
  glycan array binding signal (z-score): 0.906
[19]
  glycan array binding signal (z-score): -0.035
[20]
  glycan array binding signal (z-score): 2.21
[21]
  glycan array binding signal (z-score): -1.4
[22]
  glycan array binding signal (z-score): 1.01
Gal(a1-3)Gal(b1-4)Glc
  glycan array binding signal (z-score): 0.848
Gal(a1-3)Gal(b1-4)GlcNAc
  glycan array binding signal (z-score): -0.142
